Results are given in words; binding and its absence hold for the method and conditions named. In cells and extracts the contact can be indirect. A result given as binding can be weak or reduced; the word gives no strength.
Assays:
Experiment in all cases: co-IP; anti-GFP antibody and agarose beads on lysate of A549 cells transfected with EphB1 wt/EGFP or EphB1 mutants/EGFP; IP buffer 20 mM Tris pH 7.5, 150 mM NaCl, 1% Nonidet P-40, 0.1% sodium deoxycholate; 4 °C overnight; western blot for EfnB2, p38 and p-p38; GFP null vector as negative control
[1] = molecular target: EphB1 mutant that lacks the cysteine-rich region (CRDΔ), EGFP fusion (UniProt P54762)
[2] = molecular target: EphB1 mutant that lacks the fibronectin type III domain (FNΔ), EGFP fusion (UniProt P54762)
[3] = molecular target: EphB1 mutant that lacks the ligand-binding domain (LBDΔ), EGFP fusion (UniProt P54762)

By UniProt entry, the sequences of proteins in these tests, tags left out. Where a name states a change or a piece, a line headed by the entry shows the natural chain unless it says otherwise. Residues count along the entry.
UniProt P54762: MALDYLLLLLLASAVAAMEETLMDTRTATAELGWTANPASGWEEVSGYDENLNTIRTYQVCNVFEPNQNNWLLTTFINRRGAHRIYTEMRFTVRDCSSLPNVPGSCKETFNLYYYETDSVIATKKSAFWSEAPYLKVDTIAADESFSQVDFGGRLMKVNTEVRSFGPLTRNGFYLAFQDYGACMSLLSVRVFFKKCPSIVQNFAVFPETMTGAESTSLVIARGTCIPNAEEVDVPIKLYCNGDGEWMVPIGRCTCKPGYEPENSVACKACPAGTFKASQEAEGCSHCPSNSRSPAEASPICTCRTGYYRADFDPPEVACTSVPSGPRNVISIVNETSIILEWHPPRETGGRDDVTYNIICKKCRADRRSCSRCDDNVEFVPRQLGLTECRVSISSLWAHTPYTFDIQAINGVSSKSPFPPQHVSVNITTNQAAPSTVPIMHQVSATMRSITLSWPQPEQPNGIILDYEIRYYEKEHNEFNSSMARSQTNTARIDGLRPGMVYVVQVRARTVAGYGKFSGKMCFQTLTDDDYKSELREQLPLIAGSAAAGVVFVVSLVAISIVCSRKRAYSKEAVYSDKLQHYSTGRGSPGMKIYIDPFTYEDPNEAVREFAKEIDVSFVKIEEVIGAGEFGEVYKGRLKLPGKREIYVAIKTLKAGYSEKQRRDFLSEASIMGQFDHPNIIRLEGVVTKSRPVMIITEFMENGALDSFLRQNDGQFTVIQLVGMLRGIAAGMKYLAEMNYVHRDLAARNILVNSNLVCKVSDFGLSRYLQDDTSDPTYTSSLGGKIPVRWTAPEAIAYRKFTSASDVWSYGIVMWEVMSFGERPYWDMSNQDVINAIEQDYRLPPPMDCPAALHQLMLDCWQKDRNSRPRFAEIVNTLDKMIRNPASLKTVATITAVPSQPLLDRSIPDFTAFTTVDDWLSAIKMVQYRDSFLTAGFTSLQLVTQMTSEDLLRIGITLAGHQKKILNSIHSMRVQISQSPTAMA
UniProt P52799, residues 28-333: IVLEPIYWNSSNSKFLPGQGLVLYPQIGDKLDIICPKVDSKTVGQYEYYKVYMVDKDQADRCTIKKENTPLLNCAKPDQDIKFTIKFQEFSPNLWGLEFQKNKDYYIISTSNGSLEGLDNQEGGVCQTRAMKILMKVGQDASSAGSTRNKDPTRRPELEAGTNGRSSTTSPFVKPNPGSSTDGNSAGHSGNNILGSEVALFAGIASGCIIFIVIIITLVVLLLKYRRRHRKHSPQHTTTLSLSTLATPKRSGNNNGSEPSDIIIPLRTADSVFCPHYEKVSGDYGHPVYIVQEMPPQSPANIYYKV

Measured: binding

EfnB2 (EphrinB2) (from UniProt P52799 28-333) (ligand)
binds: all assays above

Source: PMC9675789
